No constants are given. Whether binding was seen depends on the method and setting. A result given as binding can be weak or reduced; the word gives no strength.
How the values were obtained:
Test in all cases: two-hybrid; MatchMaker GAL4 system, BnaCPK in pGBKT7 (BD), BnaPP2C in pGADT7 (AD), yeast strain AH109; scored by growth on SD-LWHA at 30°C, dilution series and X-gal staining (Figure 4)
[1] = target: BnaCPK30 (Brassica napus)
BnaCPK7 (Brassica napus) = BnaCPK7 (Brassica napus) (UniProt X2C4A1)
[2] = target: BnaCPK28 (Brassica napus) (UniProt X2C213)
[3] = target: BnaCPK32 (Brassica napus) (UniProt X2D314)

Row | Substance | binding [1] | binding (BnaCPK7 (Brassica napus)) | binding [2] | binding [3]
1 | BnaHAI2 (from UniProt X2GCR9) (enzyme) | binds | binds |  | 
2 | BnaHAB2 (from UniProt X2C3X2) (enzyme) |  | binds | binds | 
3 | BnaAHG3 (from UniProt X2C3V5) (enzyme) | binds |  |  | 
4 | BnaAHG1 (from UniProt X2GFY9) (enzyme) |  | binds |  | 
5 | BnaHAI3 (from UniProt X2G6A7) (enzyme) | binds |  |  | 
6 | BnaHAB1 (from UniProt A0A816ZBR0) (enzyme) |  | binds |  | binds

From paper PMC4000008
